Experimental data from US8119364B2, “Methods for generating analogs of coenzyme A” (The Regents of the University of California, priority 2005, dated 2012).

Test system: CoA biosynthetic enzymes (CoAA/D/E), PPTase Sfp and apo-ACP
Settings: apo-ACP 8505 Da, MALDI-MS

| Compound | mass change of ACP on formation of crypto-carrier protein |
| --- | --- |
| CN(C)c1ccc2c(CC(=O)NCCCCCCNC(=O)CCNC(=O)[C@H](O)C(C)(C)CO)cc(=O)oc2c1 [Compound 13] | 604 mass units |
| CN(C)c1ccc2c(CC(=O)NCCOCCOCCNC(=O)[C@H](O)C(C)(C)CO)cc(=O)oc2c1 [Compound 17] | 559 mass units |
| CN(C)c1ccc2c(CC(=O)NCCOCCOCCOCCOCCOCCOCCOCCOCCOCCOCCNC(=O)[C@H](O)C(C)(C)CO)cc(=O)oc2c1 [Compound 18] | 916 mass units |
